From patent publication US8486994B2, “Prodrugs of substituted 1,3-dioxanes and their uses” (Evolva SA, priority 2007, dated 2013) come the findings set out here.

The nature of this series: Pharmacokinetics (plasma exposure) after i.v. or p.o. dosing, non-compartmental analysis. The note with it: rat, 10 mg/kg, DMSO/PEG400/PBS (5%/30%/65%).

Broadly, the Tmax is the time from dosing to the highest level.

The structures given here were assigned with low confidence; some may be wrong.

In the case of `O=C(O)CC/C=C\C[C@@H]1CO[C@H](c2ccccc2Cl)O[C@@H]1c1ccccc1O`, the T-Last is 12 h; the “Terminal Half-life elimination, t½z” value is 1.22 ± 0.367 h; the Tmax came out at 3.38 ± 2.28 h.
